Assay results taken from patent US20030211466.

Columns and labels:
[1] = tested on: HuB (Hel-N2, ELAV-like); assay: binding assay; details: protein in cells
[2] = tested on: HuB (Hel-N2, ELAV-like); assay: SELEX; details: CITED previously defined in vitro binding sequence; protein in cells

“AAAUUUUAUUAAGUUA [HOX2.5 mRNA, 3'UTR motif]”: binds ([1]; whole mRNA enriched after retinoic acid, further motifs SEQ 5,7).
“AAUGGUUUAUAUUUAUGAU [Integrin alpha 5 mRNA, 3'UTR motif]”: binds ([1]; whole mRNA enriched after retinoic acid, further motif SEQ 22).
“AUGUCUUGUUCUUUGUGUUUUUAGGAU [cyclin D2 mRNA, 3'UTR motif]”: binds ([1]; RNP immunoprecipitation of whole mRNA, motif itself not assayed).
“AUUUUCUAUUCCUUUUUUAUUUUAUGUCAUUUUUUUA [CD44 mRNA, 3'UTR motif]”: binds ([1]; whole mRNA enriched in HuB mRNP after retinoic acid, motif not assayed alone).
“UAAAAAACCAAAUUUGAUUGGCUCUAAACA [IGF-2 mRNA, 3'UTR motif]”: binds ([1]; whole mRNA in HuB mRNP only after retinoic acid, further motifs SEQ 3,4).
“UAUAAUUUUUAAUUUUUUAUUAUUUU [Integrin beta mRNA, 3'UTR motif]”: binds ([1]; whole mRNA in HuB mRNP, further motif SEQ 26).
“UAUUUUGUGGUUUUAUUUUACUUUGUACUU [Egr-1/Zif268 mRNA, 3'UTR motif]”: binds ([1]; whole mRNA enriched after retinoic acid, further motif SEQ 16).
“UAUUUUUUUUCUUUUUUUUUUUUGGUCUUUAU [GADD45 mRNA, 3'UTR motif]”: binds ([1]; whole mRNA enriched after retinoic acid, further motif SEQ 11).
“UGCAUCGAUCCGUUGAUUUACUACU [Cf2r mRNA, 3'UTR motif]”: binds ([1]; whole mRNA enriched after retinoic acid).
“UUAUGAAUGUUAUAUUUGU [CTCF mRNA, 3'UTR motif]”: binds ([1]; whole mRNA enriched after retinoic acid, further motif SEQ 28).
“UUCUGUUAAAUAUUUUUAUAUACUGCUUUCUUUUUU [Nexin 1 mRNA, 3'UTR motif]”: binds ([1]; whole mRNA enriched after retinoic acid, further motifs SEQ 13,14).
For UUUAUUU [HuB in vitro consensus], the selection result [2] was “selected”.
“UUUUGUUUUUCUCCCUUUUUUAGUUUUUUCAAA [J6 (inhibitor J6) mRNA, 3'UTR motif]”: binds ([1]; whole mRNA enriched after retinoic acid, further motif SEQ 8, listing differs from table).
“UUUUUUAUUUUCUGUAUUUUUU [Neuronal cadherin mRNA, 3'UTR motif]”: binds ([1]; whole mRNA enriched after retinoic acid, further motifs SEQ 18-20).
“UUUUUUUUUCCUUUUAAUUGUAAAUGGUUCUUU [TGF beta 2 mRNA, 3'UTR motif]”: binds ([1]; whole mRNA enriched after retinoic acid, further motifs SEQ 30-35).

At least one result comes from cells or an extract, where the contact may be indirect. The exact form of at least one protein or probe is not confirmed.
